{"source": "patent US20130338203A1", "about": "“TREATMENT OF ARTERIAL AGEING BY COMBINATION OF RAAS INHIBITOR AND HMG-CoA REDUCTASE INHIBITOR” (FARMICOM PHARMACEUTICAL COMPANY D.O.O., priority 2011, published 2013)", "origin": "cited, not measured here", "key": {"carotid artery": {"test_system": "carotid artery", "conditions": "Ex 8; 1 month treatment period with fluvastatin only; cited from earlier work"}, "[1]": {"test_system": "high sensitivity C-reactive protein (hsCRP)", "conditions": "Ex 9 fluvastatin group, 1 month treatment; calculated on data from co-pending patent application; cited from earlier work"}, "arterial wall": {"test_system": "arterial wall", "conditions": "Ex 8 fluvastatin group; 7 months of rest period; cited from earlier work"}}, "note": "For at least one compound, name, drawing or mass did not settle the structure."}
{"smiles": "CC(C)n1c(/C=C/C(O)CC(O)CC(=O)O)c(-c2ccc(F)cc2)c2ccccc21", "note": "(stereo not drawn) [fluvastatin]", "values": [{"measurement": "β-stiffness of the carotid artery decreased by", "setting": "carotid artery", "value": 10.9, "unit": "%"}, {"measurement": "Change in hs-CRP value after treatment", "setting": "[1]", "value": "+2.50%"}, {"measurement": "Arterial age, difference to before treatment (in brackets)", "setting": "arterial wall", "value": "−1.4", "unit": "years"}]}
